This is one part of the list. Further columns of the screen follow, without active or inactive calls. The list favours compounds with an active or inconclusive main result. The note in brackets gives the kind of curve behind each potency; many fits are weak.
Experiment: S16 Schwann cell PMP22 intronic element beta-lactamase assay (AID 624044)
Details: S16 rat Schwann cells, PMP22 element beta-lactamase FRET, 24 h; measured here: 460 nm blue channel
Summary of the method: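 Rat S16 Schwann cells with beta-Lac driven by a PMP22 intronic element, compound-treated 24 h at 37 °C. LiveBLAzer FRET B/G read: 460 nm normalized to potassium clavulanate vs DMSO; 535 nm FRET as viability; concentration-effect curves classified.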

| SMILES | AC50 |
| --- | --- |
| CN(N=O)C(=O)N[C@H]1[C@@H](O)[C@H](O)[C@H](CO)O[C@@H]1O | 5.35 µM [falling, partial curve, poor fit] |
| COC(=O)C(c1ccccc1Cl)N1CCc2sccc2C1 (centres undefined) | 12.6 µM [falling, single point] |
| OCC(O)C(O)C(O)C(O)CO (centres undefined) | 7.94 µM [falling, partial curve] |
| CCC(C)C(N)C(=O)O (centres undefined) | 15.8 µM [falling, partial curve, poor fit] |
| CC(=O)C1(O)Cc2c(O)c3c(c(O)c2C(OC2CC(N)C(O)C(C)O2)C1)C(=O)c1c(O)cccc1C3=O (centres undefined) | 0.0999 µM [falling, full curve] |
| CNC1(C)C2CCC(C2)C1(C)C (centres undefined) | 14.1 µM [falling, partial curve, poor fit] |
| CC1C(=O)C(=O)C=CN1C (centres undefined) | 12.6 µM [falling, single point] |
| COC(=O)c1cccnc1 | 2.24 µM [falling, full curve, poor fit] |
| CC(C)[N+](C)(C)CC(O)COc1cccc2ccccc12 (centres undefined) | 0.158 µM [falling, full curve, poor fit] |
| Cc1c(Cn2ccnc2)c2ccccc2n1CCC(=O)O | 12.6 µM [falling, single point] |
| CCN(CC)CCNC(=O)c1cc(Br)c(N)cc1OC | 6.31 µM [falling, partial curve, poor fit] |
| c1ccc(CNCCNCc2ccccc2)cc1 | 1.41 µM [falling, full curve, poor fit] |
| CO[C@]1(NC(=O)CSCC#N)C(=O)N2C(C(=O)O)=C(CSc3nnnn3C)CS[C@H]21 | 0.0501 µM [falling, partial curve, poor fit] |
| C[C@@]12C=CC(=O)C=C1CCC1C3CC(O)[C@@](O)(C(=O)CO)[C@]3(C)CC(O)[C@]12F (some centres undefined) | 11.2 µM [falling, partial curve, poor fit] |
| COc1ccc(CN2CCN(C(c3ccc(F)cc3)c3ccc(F)cc3)CC2)c(OC)c1OC | 25.1 µM [rising, single point] |
| C[C@@H]1COc2c(N3CCN(C)CC3)c(F)cc3c(=O)c(C(=O)O)cn1c23 | 3.55 µM [falling, partial curve, poor fit] |
| CNC(=O)[C@H](Cc1c[nH]c2ccccc12)NC(=O)[C@@H](CC(=O)NO)CC(C)C | 25.1 µM [falling, single point] |
| CCOC(=S)SSC(=S)OCC | 0.0999 µM [falling, full curve, poor fit] |
| O=C(CS(=O)Cc1ccco1)NCC=CCOc1cc(CN2CCCCC2)ccn1 (centres undefined) | 0.0446 µM [falling, full curve, poor fit] |
| O=C(O)[C@H](O)[C@@H](O)[C@H](O)[C@H](O)CO | 14.1 µM [falling, partial curve, poor fit] |
| O=C(Nc1ccc(Oc2ccc(Cl)cc2)c(Cl)c1)c1cc(I)cc(I)c1O | 14.1 µM [falling, single point] |
| O=C(O)CCn1c2c(c3ccccc31)C[C@H](NS(=O)(=O)c1ccc(F)cc1)CC2 | 0.0224 µM [falling, full curve] |
| O=C(O)c1ccc(N[C@@H]2OC[C@@H](O)[C@@H](O)[C@@H]2O)cc1 | 25.1 µM [rising, single point] |
| COCc1c(C(C)C)nc(C(C)C)c(/C=C/[C@@H](O)C[C@@H](O)CC(=O)O)c1-c1ccc(F)cc1 | 19.9 µM [falling, partial curve] |
| C[C@]12CCC(=O)C=C1CC[C@H]1[C@@H]3CC[C@](O)(C(=O)CO)[C@@]3(C)C[C@H](O)[C@@]12F | 0.0446 µM [falling, full curve, poor fit] |
| O=C(Nc1ccc(O)cc1)c1ccccc1O | 22.4 µM [rising, partial curve] |
| CCCCCCCCCCCCCCCCOCCOCCOCCOCCOCCOCCOCCOCCOCCOCCOCCOCCOCCOCCOCCOCCOCCOCCOCCOCCO | 15.8 µM [falling, partial curve] |
| CCOCC(O)COc1ccc(NC(=O)CC[S+](C)C)cc1 (centres undefined) | 2.82 µM [rising, full curve, poor fit] |
| CC(C)c1ncc([N+](=O)[O-])n1C | 1.78 µM [falling, full curve, poor fit] |

A second format for part of the listing above:
SMILES	AC50
CC(C)[N+](C)(C)CC(O)COc1cccc2ccccc12 (centres undefined)	0.158 µM [falling, full curve, poor fit]
CCCCCCCCCCCCCCCCOCCOCCOCCOCCOCCOCCOCCOCCOCCOCCOCCOCCOCCOCCOCCOCCOCCOCCOCCOCCO	15.8 µM [falling, partial curve]

Source: PubChem BioAssay (NCATS)
